From patent publication US20140128280A1
These are yes or no findings as the source states them, for the method shown. Some binding calls cover weakened binding; strength is not graded here.

The chains behind the UniProt entries cited, without tags or fusion partners. Residues count along the entry.
UniProt P02787, residues 20-698: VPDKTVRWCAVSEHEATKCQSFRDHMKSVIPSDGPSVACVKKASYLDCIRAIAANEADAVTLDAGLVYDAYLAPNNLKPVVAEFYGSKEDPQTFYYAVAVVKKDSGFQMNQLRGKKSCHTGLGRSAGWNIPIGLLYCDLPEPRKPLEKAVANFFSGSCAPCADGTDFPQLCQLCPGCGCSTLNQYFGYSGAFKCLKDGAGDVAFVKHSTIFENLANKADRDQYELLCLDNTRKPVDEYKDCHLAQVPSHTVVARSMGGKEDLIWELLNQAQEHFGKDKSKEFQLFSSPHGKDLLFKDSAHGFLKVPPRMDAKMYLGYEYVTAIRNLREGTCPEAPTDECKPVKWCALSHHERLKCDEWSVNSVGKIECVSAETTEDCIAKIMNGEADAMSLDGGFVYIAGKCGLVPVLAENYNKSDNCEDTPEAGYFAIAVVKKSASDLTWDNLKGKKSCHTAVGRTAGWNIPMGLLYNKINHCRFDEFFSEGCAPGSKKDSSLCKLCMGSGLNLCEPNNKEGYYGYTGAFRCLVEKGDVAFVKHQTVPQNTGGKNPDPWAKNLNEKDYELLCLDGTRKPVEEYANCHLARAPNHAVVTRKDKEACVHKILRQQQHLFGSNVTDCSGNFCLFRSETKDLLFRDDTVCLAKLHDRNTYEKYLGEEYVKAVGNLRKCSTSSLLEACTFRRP

B1: TRF19 (peptide)
peptide: KEDNPGYSSEQDYNKLDGSC
B2: TRF21 (peptide)
peptide: QYHHFMNLKRQGRAQAYGSC
B3: TRF23 (peptide)
peptide: FRGWAHIFFGPHVIYRGGSC
B4: TRF24 (peptide)
peptide: SVKPWRPLITGNRWLNSGSC
B5: TRF25 (peptide)
peptide: APYAPQQIHYWSTLGFKGSC
B6: TRF26 (peptide)
peptide: AHKVVPQRQIRHAYNRYGSC
B7: TBPM021 (peptide)
peptide: ATRWCPSARPATPTTATGSC
B8: TBPM003 (peptide)
peptide: PTGWCPAPDPPRLHPLHGSC

Assays:
transferrin (human) [1] = target: transferrin (human) (UniProt P02787); test: peptide microarray, Alexa 555 transferrin with Alexa 647 E. coli lysate competitor
transferrin (human) [2] = target: transferrin (human) (UniProt P02787); test: SPR (Biacore T100), steady state affinity model, transferrin immobilized

Binder	binding (transferrin (human) [1])	binding (transferrin (human) [2])
B1	binds	–
B2	binds	–
B3	binds	–
B4	binds	–
B5	binds	–
B6	binds	–
B7	–	no binding (tested: 300 uM)
B8	–	no binding (tested: 300 uM)
